In patent US7250488:
These are yes or no findings as the source states them, for the method shown. Tags and fused reporters may be left off the sequences shown.

Assays:
Assay in all cases: GST/ICAT pull-down of ^35S-labeled in vitro translated protein, autoradiography
[1] = biological target: GSK-3β (glycogen synthase kinase-3β), ^35S-labeled
DVL-1, ^35S-labeled = biological target: DVL-1, ^35S-labeled
[2] = biological target: TCF-4 (T cell factor 4), ^35S-labeled
Axin, ^35S-labeled = biological target: Axin, ^35S-labeled

Measured: binding

B1: GST/ICAT (fusion protein between GST and ICAT) (protein, not shown: a dimerising Fc or GST)
chain: MNREGAPGKSPEEMYIQQKVRVLLMLRKMGSNLTASEEEFLRTYAGVVSSQLSQLPQHSIDQGAEDVVMAFSRSETEDRRQ
no binding: all assays above
